PubChem BioAssay AID1259425 | University of Nebraska Medical Center | 2018
Assay: 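Compare each knockdown with KSR1 silencing using changes in marker transcripts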 (primary screen). System: HCT116 human colon cancer cells. Knock-down reagent: siRNA pool against human genes, 50 nM siRNA. Detection: 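After 50 nM siRNA pool, branched-DNA assay measures six marker transcripts per well, minus blank, normalised to the geometric mean of two housekeeping transcripts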. Scale: BNIP3L mRNA: higher = more BNIP3L transcript after knockdown.
Here is an unselected part of about 14,000 reagents tested. Not all columns of the deposit are shown. Not given: the time to read-out.

gene	BNIP3L mRNA, set 1
IGLJ3	0.136
PIGV	0.0642
POLD1	0.0731
LAMA4	0.167
SMR3A	0.483
EIF4A3	0.151
SFTPD	0.134
GEMIN4	0.122
STX5	0.188
CCNI	0.203
ITK	0.0403
VPS45	0.198
PRDM1	0.0971
ABCA4	0.168
ZHX3	0.128
PCIF1	0.133
KCNH5	0.0781
DYNC1H1	0.0712
CRNKL1	0.0752
LY96	0.0872
DAB1	0.103
LILRA3	0.169
CYP2A7	0.0757
WDR3	1.14
SPANXC	0.116
OR5K1	0.0482
CLPS	0.0759
B3GNT3	0.128
ALPK3	0.0915
CCL11	0.113
PCDHB7	0.117
ZNF484	0.159
SLC11A1	0.0956
C2CD5	0.127
NIPSNAP1	0.0831
ZNF135	0.184
LOC54073 (retired record)	0.114
ECPAS	0.0774
FAM107A	0.0793
TUSC3	0.121
CDO1	0.156
PSME2	0.0696
CCDC82	0.0599
IL2RA	0.0647
NLRP10	0.0589
EPB41L4A	0.125
FZR1	0.109
CBY1	0.23
BABAM1	0.117
CIAO2A	0.174
FHIP2B	0.102
SLC39A2	0.0745
UTP18	0.126
HPDL	0.165
SCG5	0.156
DCLK1	0.146
GPR137B	0.117
ALPK2	0.0962
GMIP	0.121
CREG1	0.0462
UNK	0.1
PSPN	0.0839
SDHC	0.072

10 of these entries, reformatted:
{"gene":"ZHX3","BNIP3L mRNA, set 1":0.128}
{"gene":"PCIF1","BNIP3L mRNA, set 1":0.133}
{"gene":"KCNH5","BNIP3L mRNA, set 1":0.0781}
{"gene":"DYNC1H1","BNIP3L mRNA, set 1":0.0712}
{"gene":"CRNKL1","BNIP3L mRNA, set 1":0.0752}
{"gene":"LY96","BNIP3L mRNA, set 1":0.0872}
{"gene":"DAB1","BNIP3L mRNA, set 1":0.103}
{"gene":"LILRA3","BNIP3L mRNA, set 1":0.169}
{"gene":"CYP2A7","BNIP3L mRNA, set 1":0.0757}
{"gene":"WDR3","BNIP3L mRNA, set 1":1.14}
